Test results published in publication PMC8260879.
No constants are given. Whether binding was seen depends on the method and setting. Some entries that bind do so weakly or less than the wild type.

Chains of the proteins cited; added tags and fusions are not shown. Lines headed by an entry give the natural chain unless they say otherwise; changes in a name come on top. A line that says so, or that is headed by a name, gives the form on record, which may keep a tag or linker.
EphA2 L913F mutant tagged with mTURQ or EYFP (P29317-1, form named): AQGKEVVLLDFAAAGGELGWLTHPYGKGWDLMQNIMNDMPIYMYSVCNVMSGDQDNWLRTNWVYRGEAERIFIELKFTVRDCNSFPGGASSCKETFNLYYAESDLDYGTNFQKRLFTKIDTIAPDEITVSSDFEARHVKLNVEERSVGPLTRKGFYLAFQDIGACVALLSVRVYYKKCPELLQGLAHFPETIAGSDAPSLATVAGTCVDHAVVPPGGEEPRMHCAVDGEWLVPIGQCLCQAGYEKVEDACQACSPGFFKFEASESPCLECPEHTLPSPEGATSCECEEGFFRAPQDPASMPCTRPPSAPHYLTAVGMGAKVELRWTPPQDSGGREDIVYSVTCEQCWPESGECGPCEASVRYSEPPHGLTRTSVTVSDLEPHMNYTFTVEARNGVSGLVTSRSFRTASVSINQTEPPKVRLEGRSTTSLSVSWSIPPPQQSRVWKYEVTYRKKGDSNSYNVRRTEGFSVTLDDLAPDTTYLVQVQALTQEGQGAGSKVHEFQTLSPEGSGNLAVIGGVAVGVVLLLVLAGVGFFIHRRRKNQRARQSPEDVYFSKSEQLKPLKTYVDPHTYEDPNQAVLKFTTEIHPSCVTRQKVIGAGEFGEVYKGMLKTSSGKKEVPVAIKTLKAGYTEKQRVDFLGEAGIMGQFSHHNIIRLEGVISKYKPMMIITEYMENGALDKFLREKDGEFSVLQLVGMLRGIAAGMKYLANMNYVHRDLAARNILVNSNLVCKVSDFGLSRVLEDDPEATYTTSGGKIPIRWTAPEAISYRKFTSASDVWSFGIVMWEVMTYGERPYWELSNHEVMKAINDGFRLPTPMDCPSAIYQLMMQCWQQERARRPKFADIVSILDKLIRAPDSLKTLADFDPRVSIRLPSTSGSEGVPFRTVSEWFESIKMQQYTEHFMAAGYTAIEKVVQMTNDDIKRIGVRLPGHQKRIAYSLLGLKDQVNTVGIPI

Molecular target: EphA2 L913F mutant tagged with mTURQ or EYFP (human) (UniProt P29317)
Test: fluorescence intensity fluctuation (FIF) analysis; molecular brightness in regions of the basolateral membrane of transfected HEK293 cells, no ligand, data over the whole range of receptor concentrations

## EphA2 L913F mutant tagged with mTURQ or EYFP (from UniProt P29317-1 24-976) (receptor)
  binding: binds
